# Reference: patent US11969433B2, “Compositions and methods for muscle regeneration using prostaglandin E2” (The Board of Trustees of the Leland Stanford Junior …, priority 2016, dated 2024)
# Values joined by “and” are separate entries in the source; they are usually repeats but may differ in a detail not shown here. Equal values may be shown once.
# Tested on: gastrocnemius (GA) muscle
# Assay: In vivo muscle force after downhill treadmill run, aged mice (Example 1)
# Design: species or system mouse
# Details: aged gastrocnemius week 5 post-exercise
# Procedure: Aged mice (18 mo.) were subjected to downhill treadmill run for 2 consecutive weeks. During week 1, mice ran daily for 5 days and rested on days 6 and 7. Two hours after each treadmill run during week 1, each (lateral and medial) gastrocnemius (GA) muscle from both legs of each mouse was injected with a dose of either PBS (vehicle control) or 13 nM dmPGE2 (experimental group). During week 2, mice were subjected to 5 days treadmill run only. The treadmill run was performed using the Exer3/6 (Columbus Instruments). Mice ran for 10 minutes on the treadmill at 20 degrees downhill, starting at a speed of 7 meters/min. After 3 min, the speed was increased by 1 meter/min to a final speed of 14 meter/min. […] Force measurements were on the GA muscles at week 5 based on a protocol published previously^5. Briefly, for each mouse, an incision was made to expose the GA. We severed the calcaneus bone with intact achilles tendon and attached the tendon-bone complex to a 300C-LR force transducer (Aurora Scientific) with a thin metal hook. The muscles and tendons were kept moist by periodic wetting with saline (0.9% sodium chloride) solution. The lower limb was immobilized below the knee by a metal clamp without compromising the blood supply to the leg. The mouse was under inhaled anesthetic (2% isofluorane) during the entire force measuring procedure and body temperature was maintained by a heat lamp. In all measurements, we used 0.1-ms pulses at a predetermined supramaximal stimulation voltage. The GA muscles were stimulated via the proximal sciatic nerve using a bipolar electrical stimulation cuff delivering a constant current of 2 mA (square pulse width 0.1 ms). GA muscles were stimulated with a single 0.1-ms pulse for twitch force measurements, and a train of 150 Hz for 0.3 s pulses for tetanic force measurements. We performed five twitch and then five tetanic measurements on each muscle, with 2-3 min recovery between each measurement with n=5 mice per group. Data were collected with a PCI-6251 acquisition card (National Instruments) and analyzed in Matlab. We calculated specific force values by normalizing the force measurements by the muscle physiological cross-sectional areas (PCSAs), which were similar between the control and the experimental PGE2 treated group (Table 2). PCSA (measured in mm^2) was calculated according to the following equation^12: PCSA (mm^2)=[mass (g)×Cos θ]÷[ρ(g/mm^3)×fiber length (mm)], where θ is pennation angle of the fiber and ρ is muscle density (0.001056 g/mm^3). Statistical Analyses
compound,measurement,setting,value
"CCCCC(C)(C)[C@H](O)/C=C/[C@H]1[C@H](O)CC(=O)[C@@H]1C/C=C\CCCC(=O)O [dmPGE2, 16,16-dimethyl prostaglandin E2]","PCSA (medial + lateral), average",group average,25.63 mm^2
same,Cosine(θ),single leg of single mouse,0.98 (3×) and 0.96 and 0.91 and 0.97 (3×) and 0.94
same,GA Mass,single leg of single mouse,0.25 g and 0.16 g (3×) and 0.14 g (3×) and 0.17 g (2×)
same,Pennation angle θ,single leg of single mouse,12 degree (2×) and 16 degree and 14 degree (2×) and 13 degree (2×) and 11 degree (2×)
